In ChEMBL document CHEMBL3808335, “Discovery of KLS-13019, a Cannabidiol-Derived Neuroprotective Agent, with Improved Potency, Safety, and Permeability” (ACS Med Chem Lett, 2016):
≈ marks a conversion by molar mass, not a printed value.

Test: Kinetic aqueous solubility of the compound at pH 7.4
Settings: buffer

With `C=C(C)[C@@H]1CCC(C)=C[C@H]1c1c(O)cc(CCn2ccnn2)cc1O` as the compound, how does the solubility kinetic read?
The solubility kinetic was 88 µM (≈ 29.9 µg/mL).
